Record: PubChem BioAssay AID1259314 (Drosophila RNAi Screening Center, 2017)
This is a random part of about 3,100 reagents. 289 of them (9.3%) count as active. 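Active includes both higher and lower ATP than plate average; check the z-score sign for direction.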 Reagent sequences are not shown. Not given: the amount of reagent.

- Screen: 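Genes whose knock-down alters cell survival under toxic manganese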 (primary screen)
- Cell system: Drosophila S2R+ cells
- Knock-down reagent: long dsRNA against Drosophila genes
- Duration: 5 days (4 days knock-down, then 1 day metal exposure)
- Challenge: manganese chloride added to 15 mM for 24 hours
- Detection: 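Luciferase ATP signal used as a proxy for viable cell number, reported as one averaged z-score per dsRNA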
- Direction: mean ATP z-score: higher = more ATP than the plate average, more viable cells under manganese
- Active means: 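a mean ATP z-score past 1.5 in either direction is called active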
- Calls: active = strong ATP change, up or down; inactive = no strong ATP change

What did the screen give for CG11737 [DRSC14364]?
mean ATP z-score: 0.711; outcome: inactive

Which result is listed for Or43b (Odorant receptor 43b) [DRSC07486]?
mean ATP z-score: -0.734; outcome: inactive

For Or43b (Odorant receptor 43b) [DRSC29565], how do the results read?
mean ATP z-score: 0.589; outcome: inactive

With Slc45-1 [DRSC10427], what was measured?
mean ATP z-score: -0.886; outcome: inactive

For CG42329 [DRSC00682], how do the results read?
mean ATP z-score: -0.922; outcome: inactive

With Oatp74D (Organic anion transporting polypeptide 74D) [DRSC09491], what does the deposit list?
mean ATP z-score: 0.45; outcome: inactive

Which result is listed for Oatp74D (Organic anion transporting polypeptide 74D) [DRSC10883]?
mean ATP z-score: 0.0666; outcome: inactive

For Tim17a2 [DRSC12252], what does the deposit list?
mean ATP z-score: 0.518; outcome: inactive

For Tim17a2 [DRSC23837], what does the deposit list?
mean ATP z-score: -0.735; outcome: inactive

With bves [DRSC20520], how do the results read?
mean ATP z-score: 0.524; outcome: inactive

What did the screen give for bves [DRSC20555]?
mean ATP z-score: 0.203; outcome: inactive

With CG15880 [DRSC00474], how do the results read?
mean ATP z-score: -0.172; outcome: inactive

For CG15880 [DRSC39795], what was measured?
mean ATP z-score: 0.611; outcome: inactive

With eca (eclair) [DRSC22290], how do the results read?
mean ATP z-score: 1.39; outcome: inactive

What did the screen give for CG7582 [DRSC16261]?
mean ATP z-score: 0.19; outcome: inactive

With CG7582 [DRSC39773], what was measured?
mean ATP z-score: -1.25; outcome: inactive

For CG5021 [DRSC10469], what does the deposit list?
mean ATP z-score: 0.287; outcome: inactive

How did the screen score CG5021 [DRSC39741]?
mean ATP z-score: -0.379; outcome: inactive

With Elovl7 (ELOVL fatty acid elongase 7) [DRSC15452], how do the results read?
mean ATP z-score: -0.501; outcome: inactive

For Elovl7 (ELOVL fatty acid elongase 7) [DRSC21570], how do the results read?
mean ATP z-score: -1.43; outcome: inactive

For Elovl7 (ELOVL fatty acid elongase 7) [DRSC25259], how do the results read?
mean ATP z-score: 0.326; outcome: inactive

Not a retest: 2 of the entries above.
bves [DRSC20520] → mean ATP z-score = 0.524; outcome = inactive
bves [DRSC20555] → mean ATP z-score = 0.203; outcome = inactive
